Results are given in words; binding and its absence hold for the method and conditions named. Some entries that bind do so weakly or less than the wild type.
These binders were tested against IL6 (UniProt P05231) (assay: MRD identification, Example 48).

Protein sequences, listed by entry. Tags and fused reporters are not part of them. Residues count along the entry.
UniProt P05231, residues 30-212: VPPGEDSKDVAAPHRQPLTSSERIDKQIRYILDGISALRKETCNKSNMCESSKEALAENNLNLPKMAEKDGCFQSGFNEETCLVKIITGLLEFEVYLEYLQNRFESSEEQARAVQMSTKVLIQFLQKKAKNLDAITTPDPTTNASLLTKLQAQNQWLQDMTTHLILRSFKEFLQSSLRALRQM

binding, binds:
LIMGCPWDPLLMLCQERR [ILB409]
SHIACGWDPLMMMCTQEM [ILB339]
LCFWDPLYMECSTHLYID [ILB353]
FVDDCVWDPLMMDCHRYS [ILB344]
MTQSLSFCHWDPLLMYCV [ILB319]
WLEQCVWDPLLMSCTSYV [ILB387]
FNTQSTDCWWDPLLMLCA [ILB361]
QLFTCHWDPLLMDCTWDS [ILB383]
VQLTCFWDPLMMWCSEQS [ILB362]
KAVLSNYCYWDPLLMICS [ILB334]
NRLMCFWDPLLMVCQSDL [ILB399]
LTFLFYRCSWESVTPGCI [ILB405]
LVPYSWYCVWDPLLMDCV [ILB320]
SYAYCYWDPLLMECADPM [ILB390]
LHFVCFWDPLIMDCSPQM [ILB389]
KLALLDDCIWDPLLMSCR [ILB347]
ICWWDPLLMDCISTVEPY [ILB340]
RWKIDVICKVEILQRRCT [ILB337]
VNVSFWGCVWDPLLMVCS [ILB333]
ALMFCFWDPLLMRCNANV [ILB398]
LTGYCYWDPLLMNCLEQG [ILB330]
GQNHCFWDPLMMICLNGH [ILB350]
FCSWDPMLMDCSTITFDM [ILB324]
LRAICIWDPLMMLCGTMG [ILB365]
LLAWCFWDPLLMDCVWDS [ILB357]
TQMYCWWDPLLMNCTEMS [ILB329]
TLLTCVWDPLLMQCRDLE [ILB351]
FHHFCFWDPLLMGCMNYN [ILB359]
HCYWDPLLMTCYDSGPWV [ILB342]
FWVGCPWDPLLMKCTSYN [ILB379]
FCVWDPLLMLCQWLEDSS [ILB360]
SDNLYFDCHWDPLLMMCR [ILB321]
LFTMCHWDPLLMDCATVP [ILB323]
FSVNYTPCVWDPLLMRCS [ILB377]
MFLSVVDCFWDPLLMECV [ILB341]
GSIICWWDPLLMSCADLK [ILB382]
TSGLCVWDPLMMSCASLL [ILB408]
LVALPNSCFWDPLLMTCR [ILB378]
SLLECFWDPLMMNCSNGL [ILB395]
RSFVCNWDPLMMTCTSDL [ILB368]
LMQRPVHCVWDPLLMNCR [ILB402]
KLALMSSCLWDPLLMDCM [ILB380]
SHSSNMGCYWDPLMMMCH [ILB370]
HCYWDPLLMDCKYLILEG [ILB381]
SISRAFSCVWDPLLMNCS [ILB317]
PLWSCFWDPLLMDCQWTL [ILB369]
SSPGIDACWWDPLLMDCA [ILB388]
PDTLCIWDPLLMQCRWMP [ILB332]
VWLVFWPCFLDPISSICN [ILB393]
YHYLSVNCHWDPLLMECT [ILB358]
SLWLTVLCPWDPLLMACI [ILB407]
DWSTLYFCSWDPLLMLCS [ILB349]
WQCYYRLCMGYPLGILCS [ILB403]
GFGSSWFCSWDPLLMQCQ [ILB316]
YVSPCVWDPLLMLCNESW [ILB352]
ISFPHFICPWDPLLMQCS [ILB367]
SDDWTMECYWDPLLMTCI [ILB397]
LLLSTYWCSWDPLLMDCN [ILB406]
NHPMCWWDPLMMDCMYFE [ILB331]
LGRLVPYCRWDPLSMVCL [ILB335]
FRFATFFCYWDPLLMSCR [ILB404]
RVYECYWDPLIMDCTWDL [ILB371]
IFEYCVWDPLLLRCSLNS [ILB343]
WTNWCGWVLPTMLCMYWI [ILB348]

Source: patent publication US20160046678A1 (ZYNGENIA, published 2016)
